# B1: COPG1 (protein, UniProt Q9Y678 1-874, looked up)
# Coatomer subunit gamma-1: MLKKFDKKDEESGGGSNPFQHLEKSAVLQEARVFNETPINPRKCAHILTKILYLINQGEHLGTTEATEAFFAMTKLFQSNDPTLRRMCYLTIKEMSCIAEDVIIVTSSLTKDMTGKEDNYRGPAVRALCQITDSTMLQAIERYMKQAIVDKVPSVSSSALVSSLHLLKCSFDVVKRWVNEAQEAASSDNIMVQYHALGLLYHVRKNDRLAVNKMISKVTRHGLKSPFAYCMMIRVASKQLEEEDGSRDSPLFDFIESCLRNKHEMVVYEAASAIVNLPGCSAKELAPAVSVLQLFCSSPKAALRYAAVRTLNKVAMKHPSAVTACNLDLENLVTDSNRSIATLAITTLLKTGSESSIDRLMKQISSFMSEISDEFKVVVVQAISALCQKYPRKHAVLMNFLFTMLREEGGFEYKRAIVDCIISIIEENSESKETGLSHLCEFIEDCEFTVLATRILHLLGQEGPKTTNPSKYIRFIYNRVVLEHEEVRAGAVSALAKFGAQNEEMLPSILVLLKRCVMDDDNEVRDRATFYLNVLEQKQKALNAGYILNGLTVSIPGLERALQQYTLEPSEKPFDLKSVPLATAPMAEQRTESTPITAVKQPEKVAATRQEIFQEQLAAVPEFRGLGPLFKSSPEPVALTESETEYVIRCTKHTFTNHMVFQFDCTNTLNDQTLENVTVQMEPTEAYEVLCYVPARSLPYNQPGTCYTLVALPKEDPTAVACTFSCMMKFTVKDCDPTTGETDDEGYEDEYVLEDLEVTVADHIQKVMKLNFEAAWDEVGDEFEKEETFTLSTIKTLEEAVGNIVKFLGMHPCERSDKVPDNKNTHTLLLAGVFRGGHDILVRSRLLLLDTVTMQVTARSLEELPVDIILASVG
# B2: AUP1 (protein, UniProt Q9Y679 1-410, looked up)
# Lipid droplet-regulating VLDL …: MELPSGPGPERLFDSHRLPGDCFLLLVLLLYAPVGFCLLVLRLFLGIHVFLVSCALPDSVLRRFVVRTMCAVLGLVARQEDSGLRDHSVRVLISNHVTPFDHNIVNLLTTCSTPLLNSPPSFVCWSRGFMEMNGRGELVESLKRFCASTRLPPTPLLLFPEEEATNGREGLLRFSSWPFSIQDVVQPLTLQVQRPLVSVTVSDASWVSELLWSLFVPFTVYQVRWLRPVHRQLGEANEEFALRVQQLVAKELGQTGTRLTPADKAEHMKRQRHPRLRPQSAQSSFPPSPGPSPDVQLATLAQRVKEVLPHVPLGVIQRDLAKTGCVDLTITNLLEGAVAFMPEDITKGTQSLPTASASKFPSSGPVTPQPTALTFAKSSWARQESLQERKQALYEYARRRFTERRAQEAD
# B3: COQ8B (protein, UniProt Q96D53 1-544, looked up)
# Atypical kinase COQ8B, …: MWLKVGGLLRGTGGQLGQTVGWPCGALGPGPHRWGPCGGSWAQKFYQDGPGRGLGEEDIRRAREARPRKTPRPQLSDRSRERKVPASRISRLANFGGLAVGLGLGVLAEMAKKSMPGGRLQSEGGSGLDSSPFLSEANAERIVQTLCTVRGAALKVGQMLSIQDNSFISPQLQHIFERVRQSADFMPRWQMLRVLEEELGRDWQAKVASLEEVPFAAASIGQVHQGLLRDGTEVAVKIQYPGIAQSIQSDVQNLLAVLKMSAALPAGLFAEQSLQALQQELAWECDYRREAACAQNFRQLLANDPFFRVPAVVKELCTTRVLGMELAGGVPLDQCQGLSQDLRNQICFQLLTLCLRELFEFRFMQTDPNWANFLYDASSHQVTLLDFGASREFGTEFTDHYIEVVKAAADGDRDCVLQKSRDLKFLTGFETKAFSDAHVEAVMILGEPFATQGPYDFGSGETARRIQDLIPVLLRHRLCPPPEETYALHRKLAGAFLACAHLRAHIACRDLFQDTYHRYWASRQPDAATAGSLPTKGDSWVDPS
# B4: PYCR1 (protein, UniProt P32322 2-319, looked up)
# Pyrroline-5-carboxylate …: SVGFIGAGQLAFALAKGFTAAGVLAAHKIMASSPDMDLATVSALRKMGVKLTPHNKETVQHSDVLFLAVKPHIIPFILDEIGADIEDRHIVVSCAAGVTISSIEKKLSAFRPAPRVIRCMTNTPVVVREGATVYATGTHAQVEDGRLMEQLLSSVGFCTEVEEDLIDAVTGLSGSGPAYAFTALDALADGGVKMGLPRRLAVRLGAQALLGAAKMLLHSEQHPGQLKDNVSSPGGATIHALHVLESGGFRSLLINAVEASCIRTRELQSMADQEQVSPAAIKKTILDKVKLDSPAGTALSPSGHTKLLPRSLAPAGKD
# B5: GCDH (protein, UniProt Q92947 45-438, looked up)
# Glutaryl-CoA dehydrogenase, …: RPEFDWQDPLVLEEQLTTDEILIRDTFRTYCQERLMPRILLANRNEVFHREIISEMGELGVLGPTIKGYGCAGVSSVAYGLLARELERVDSGYRSAMSVQSSLVMHPIYAYGSEEQRQKYLPQLAKGELLGCFGLTEPNSGSDPSSMETRAHYNSSNKSYTLNGTKTWITNSPMADLFVVWARCEDGCIRGFLLEKGMRGLSAPRIQGKFSLRASATGMIIMDGVEVPEENVLPGASSLGGPFGCLNNARYGIAWGVLGASEFCLHTARQYALDRMQFGVPLARNQLIQKKLADMLTEITLGLHACLQLGRLKDQDKAAPEMVSLLKRNNCGKALDIARQARDMLGGNGISDEYHVIRHAMNLEAVNTYEGTHDIHALILGRAITGIQAFTASK
# B6: TMED10 (protein, UniProt P49755 32-219, looked up)
# Transmembrane emp24 …: ISFHLPINSRKCLREEIHKDLLVTGAYEISDQSGGAGGLRSHLKITDSAGHILYSKEDATKGKFAFTTEDYDMFEVCFESKGTGRIPDQLVILDMKHGVEAKNYEEIAKVEKLKPLEVELRRLEDLSESIVNDFAYMKKREEEMRDTNESTNTRVLYFSIFSMFCLIGLATWQVFYLRRFFKAKKLIE
# B7: GTPBP6 (protein, UniProt O43824 1-516, looked up)
# Putative GTP-binding protein 6: MWALRAAVRPGLRLSRVGRGRSAPRAAAPSCPARALAAVGRRSPGNLEGPWGGGRGLRADGGRSRTGDDEEEPEDADENAEEELLRGEPLLPAGTQRVCLVHPDVKWGPGKSQMTRAEWQVAEATALVHTLDGWSVVQTMVVSTKTPDRKLIFGKGNFEHLTEKIRGSPDITCVFLNVERMAAPTKKELEAAWGVEVFDRFTVVLHIFRCNARTKEARLQVALAEMPLHRSNLKRDVAHLYRGVGSRYIMGSGESFMQLQQRLLREKEAKIRKALDRLRKKRHLLRRQRTRREFPVISVVGYTNCGKTTLIKALTGDAAIQPRDQLFATLDVTAHAGTLPSRMTVLYVDTIGFLSQLPHGLIESFSATLEDVAHSDLILHVRDVSHPEAELQKCSVLSTLRGLQLPAPLLDSMVEVHNKVDLVPGYSPTEPNVVPVSALRGHGLQELKAELDAAVLKATGRQILTLRVRLAGAQLSWLYKEATVQEVDVIPEDGAADVRVIISNSAYGKFRKLFPG
# B8: SSR1 (protein, UniProt P43307 19-286, looked up)
# Translocon-associated protein …: VLFRGGPRGLLAVAQDLTEDEETVEDSIIEDEDDEAEVEEDEPTDLVEDKEEEDVSGEPEASPSADTTILFVKGEDFPANNIVKFLVGFTNKGTEDFIVESLDASFRYPQDYQFYIQNFTALPLNTVVPPQRQATFEYSFIPAEPMGGRPFGLVINLNYKDLNGNVFQDAVFNQTVTVIEREDGLDGETIFMYMFLAGLGLLVIVGLHQLLESRKRKRPIQKVEMGTSSQNDVDMSWIPQETLNQINKASPRRLPRKRAQKRSVGSDE
# B9: ABCD3 (protein, UniProt P28288 1-659, looked up)
# ATP-binding cassette …: MAAFSKYLTARNSSLAGAAFLLLCLLHKRRRALGLHGKKSGKPPLQNNEKEGKKERAVVDKVFFSRLIQILKIMVPRTFCKETGYLVLIAVMLVSRTYCDVWMIQNGTLIESGIIGRSRKDFKRYLLNFIAAMPLISLVNNFLKYGLNELKLCFRVRLTKYLYEEYLQAFTYYKMGNLDNRIANPDQLLTQDVEKFCNSVVDLYSNLSKPFLDIVLYIFKLTSAIGAQGPASMMAYLVVSGLFLTRLRRPIGKMTITEQKYEGEYRYVNSRLITNSEEIAFYNGNKREKQTVHSVFRKLVEHLHNFILFRFSMGFIDSIIAKYLATVVGYLVVSRPFLDLSHPRHLKSTHSELLEDYYQSGRMLLRMSQALGRIVLAGREMTRLAGFTARITELMQVLKDLNHGKYERTMVSQQEKGIEGVQVIPLIPGAGEIIIADNIIKFDHVPLATPNGDVLIRDLNFEVRSGANVLICGPNGCGKSSLFRVLGELWPLFGGRLTKPERGKLFYVPQRPYMTLGTLRDQVIYPDGREDQKRKGISDLVLKEYLDNVQLGHILEREGGWDSVQDWMDVLSGGEKQRMAMARLFYHKPQFAILDECTSAVSVDVEGYIYSHCRKVGITLFTVSHRKSLWKHHEYYLHMDGRGNYEFKQITEDTVEFGS
# B10: GTPBP2 (protein, UniProt Q9BX10 1-602, looked up)
# GTP-binding protein 2: MDSRVSELFGGCCRPGGGPAVGGTLKARGAGSSSGCGGPKGKKKNGRNRGGKANNPPYLPPEAEDGNIEYKLKLVNPSQYRFEHLVTQMKWRLQEGRGEAVYQIGVEDNGLLVGLAEEEMRASLKTLHRMAEKVGADITVLREREVDYDSDMPRKITEVLVRKVPDNQQFLDLRVAVLGNVDSGKSTLLGVLTQGELDNGRGRARLNLFRHLHEIQSGRTSSISFEILGFNSKGEVVNYSDSRTAEEICESSSKMITFIDLAGHHKYLHTTIFGLTSYCPDCALLLVSANTGIAGTTREHLGLALALKVPFFIVVSKIDLCAKTTVERTVRQLERVLKQPGCHKVPMLVTSEDDAVTAAQQFAQSPNVTPIFTLSSVSGESLDLLKVFLNILPPLTNSKEQEELMQQLTEFQVDEIYTVPEVGTVVGGTLSSGICREGDQLVVGPTDDGCFLELRVCSIQRNRSACRVLRAGQAATLALGDFDRALLRKGMVMVSPEMNPTICSVFEAEIVLLFHATTFRRGFQVTVHVGNVRQTAVVEKIHAKDKLRTGEKAVVRFRFLKHPEYLKVGAKLLFREGVTKGIGHVTDVQAITAGEAQANMGF
# System: BAF complex subunits and histone proteins
# Assay: Mass spectrometry proteomics of purified HA-SS18 WT and HA-SS18-SSX1 complexes (Tables 5A-5E)
# Design: species or system human
# Settings: HA-SS18SSX1 purification, NE (soluble nuclear extract) fraction, HEK-293T; peptides per identified protein
Molecule,Total (total peptides),Unique (unique peptides)
B1,3,3
B2,3,3
B3,3,3
B4,3,3
B5,3,3
B6,3,3
B7,3,3
B8,3,3
B9,3,3
B10,3,3

# Same assay, conditions: HA-SS18WT_NE_peptides: HA-SS18 WT complexes purified from nuclear extract (NE), HEK-293T; label = protein identified (Gene Symbol)
Molecule,Total (peptides),Unique (peptides)
B1,3,3
B3,4,4
B5,4,4
B7,3,3
B8,3,3
B9,3,3
B10,3,3

# Same assay, conditions: HA-SS18WT_NE_peptides: proteins co-purified with HA-SS18 WT from nuclear extract (NE), HEK-293T
Molecule,Total (peptides),Unique (peptides)
B2,1,1
B4,1,1
B6,2,2

# Source: US20250283871A1, “COMPOSITIONS AND METHODS FOR MODULATING THE INTERACTION BETWEEN SS18-SSX FUSION ONCOPROTEIN AND NUCLEOSOMES” (Dana-Farber Cancer Institute, Inc., priority 2020, published 2025)
